The list shows only some results of the screen, not a fair sample: it is rich in T/C values a quarter to a half above the control, in often repeated tests (any T/C) and in doses without a T/C. Other doses and runs of a compound stand elsewhere. T/C: endpoint of the treated group in % of that of the vehicle group. Some entries give survivors of the animals treated and no T/C: the source files T/C as zero there, which appears to mark a toxic dose or a test without result, not a measured value. Some doses without a T/C left all or most animals alive at the check, yet need not have been tolerated: the source hardly ever lists a survival T/C far under the control, and the zero likely stands for such cases as well. Survivors were counted at the toxicity check, usually on the fifth day, unless a day is given; later deaths do not show. Schedule codes are those of the source, taken here to give the interval after Q, in days (D) or hours (H), and the number of doses after X. Some entries were tested several times; their values stand side by side, smallest first. For survival time, the PubChem record calls one and a half times the control and up active, and a quarter to a half above the control has no call in these data; cut-offs in other NCI protocols can differ. Some T/C values carry the count of animals alive at the toxicity check (mostly the fifth day); where none is given, no animal had died by that day.

This test has as its system B6C3F1 mice, ip Sarcoma M5076, median survival T/C. As to the kind of experiment: NCI In Vivo Anticancer Drug Screen. Data for tumor model Sarcoma M5076 (intraperitoneal) in B6C3F1 mice. The following applies: T/C endpoint: median survival time, schedule: Q04DX004 (ip), higher T/C = longer survival. The method in brief:
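The readout is a ratio of survival in drug-treated animals to survival in animals given vehicle alone, taken in mice bearing a transplanted tumour line.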

Setting [1] is: dose: 800.0 mg/kg/injection, vehicle: Klucel (hydroxypropylcellulose) (HPC).

In the case of `CC[C@@]1(O)C(=O)OCc2c1cc1n(c2=O)Cc2cc3cc(O)ccc3nc2-1`, the T/C (dose: 4.0 mg/kg/injection, vehicle: suspension in saline) was 133 % of control; the T/C (dose: 7.5 mg/kg/injection, vehicle: suspension in saline) is 134 % of control; the T/C (dose: 11.12 mg/kg/injection, vehicle: suspension in saline) is 126 % of control [8 of 10 alive on day 14]; the T/C (dose: 15.0 mg/kg/injection, vehicle: suspension in saline) is 142 % of control [8 of 10 alive on day 14]. Further, the survivor count runs as follows: (dose: 18.53 mg/kg/injection, vehicle: suspension in saline) 0 of 10 on day 14; (dose: 30.0 mg/kg/injection, vehicle: suspension in saline) 0 of 10 on day 14.

For the compound `CNC(=S)SC1=NS(=O)(=O)c2ccccc2N1`, the survivor count was 0 of 10 on day 14 (dose: 480.0 mg/kg/injection, vehicle: Klucel (hydroxypropylcellulose) (HPC)); 0 of 10 on day 14 under setting [1]; 0 of 10 on day 14 (dose: 1333.33 mg/kg/injection, vehicle: Klucel (hydroxypropylcellulose) (HPC)). The T/C under setting [1] was 125 % of control [7 of 10 alive on day 14].

Turning to `O=C(Nc1ccccc1)c1cc2ccccc2oc1=O`, the survivor count reads like this: (dose: 112.5 mg/kg/injection, vehicle: saline with Tween-80) 9 of 10 on day 14; (dose: 225.0 mg/kg/injection, vehicle: saline with Tween-80) 9 of 10 on day 14; (dose: 450.0 mg/kg/injection, vehicle: saline with Tween-80) 10 of 10 on day 14.

With `O=C(O)[C@H](Cc1ccccc1)N1C(=O)c2ccccc2C1=O`, the survivor count is, setting by setting: (dose: 500.0 mg/kg/injection, vehicle: DMSO) 10 of 10 on day 14; (dose: 1000.0 mg/kg/injection, vehicle: DMSO) 8 of 9 on day 14.

As to `O=[n+]1c2c(n([O-])c3ccccc31)CCC2`, under “dose: 87.5 mg/kg/injection, vehicle: saline with Tween-80”, the T/C was 125 % of control. The survivor count (dose: 700.0 mg/kg/injection, vehicle: saline with Tween-80) is listed as 0 of 10 on day 14.

Regarding `CN1CCC2CC1c1ccn(C)c1C2=O` (configuration not stated), the survivor count is, setting by setting: (dose: 30.0 mg/kg/injection, vehicle: saline) 5 of 10 on day 14; (dose: 60.0 mg/kg/injection, vehicle: saline) 0 of 10 on day 14.

Consider `N#Cc1c(-c2ccccc2)c(-c2ccccc2)nn(CC(=O)O)c1=O`, for which the survivor count by setting is: (dose: 400.0 mg/kg/injection, vehicle: distilled water + Tween-80) 4 of 10 on day 14; (dose: 800.0 mg/kg/injection, vehicle: distilled water + Tween-80) 0 of 10 on day 14.

As to `CN1C(=O)C(=O)N(Cc2ccc(CN3C(=O)C(=O)N(C)C3=O)cc2)C1=O`, the survivor count under setting [1] is 8 of 10 on day 14.

For `COc1c2c(c(O)c3c4c(c(C)cc13)C1OC3(C(OC)OC5CC(C)(O)C(OC6CC(C)(O)C(O)C(C)O6)C(C)O5)OC1C(OC)(O4)C31CO1)C(=O)C(O)CC2OC1CC(C)(O)C(OC(C)=O)C(C)O1` (configuration not stated), the T/C was 128 and 131 % of control (dose: 0.06 mg/kg/injection, vehicle: saline); 125 and 149 % of control (dose: 0.12 mg/kg/injection, vehicle: saline); 129 % of control [9 of 10 alive on day 14] (dose: 100.0 micrograms/kg/injection, vehicle: saline); 131 % of control (dose: 167.0 micrograms/kg/injection, vehicle: saline). For the same compound, the survivor count is, setting by setting: (dose: 0.25 mg/kg/injection, vehicle: saline) 0 of 10 on day 14 and 9 of 10 on day 14; (dose: 0.5 mg/kg/injection, vehicle: saline) 0 of 10 on day 14 and 1 of 10 on day 14; (dose: 1.0 mg/kg/injection, vehicle: saline) 0 of 10 on day 14; (dose: 278.0 micrograms/kg/injection, vehicle: saline) 8 of 10 on day 14; (dose: 463.0 micrograms/kg/injection, vehicle: saline) 0 of 10 on day 14.

As for `CCCCNc1ccc2nnc(C)n2n1`, the survivor count (dose: 400.0 mg/kg/injection, vehicle: DMSO) was 0 of 10 on day 14 and 4 of 10 on day 14; the survivor count (dose: 800.0 mg/kg/injection, vehicle: DMSO) is 0 of 10 on day 14.

For `C=C1C(O)C2(O)OCC34C(CC5C(C)=CC(=O)C(O)C5(C)C23)OC(=O)C(OC(=O)C/C=C(\C)CCCCC)C14` (configuration not stated), the T/C (dose: 4.0 mg/kg/injection, vehicle: saline + alcohol) was 141 % of control. Further, the survivor count is, setting by setting: (dose: 16.0 mg/kg/injection, vehicle: saline + alcohol) 2 of 10 on day 14 and 3 of 10 on day 14; (dose: 32.0 mg/kg/injection, vehicle: saline + alcohol) 0 of 10 on day 14; (dose: 64.0 mg/kg/injection, vehicle: saline + alcohol) 0 of 10 on day 14.

In the case of `CC1=CC(C)(C)N=C2SC(COc3ccccc3)=NN12`, the survivor count (dose: 800.0 mg/kg/injection, vehicle: saline with Tween-80) is reported as 8 of 10 on day 14.

With `CCN(CC)CCOC(=O)c1cc2cc3cc(C(=O)OCCN(CC)CC)c(=O)oc3c(C)c2oc1=O`, the survivor count (dose: 300.0 mg/kg/injection, vehicle: saline) is reported as 8 of 10 on day 14.

As for `CC1=C(/C=C/C(C)=C/C=C/C(C)=C/C=O)C(C)(C)CCC1`, the survivor count is recorded as 9 of 10 on day 14 (dose: 300.0 mg/kg/injection, vehicle: saline + alcohol); 0 of 10 on day 14 (dose: 600.0 mg/kg/injection, vehicle: saline + alcohol); 0 of 10 on day 14 (dose: 1200.0 mg/kg/injection, vehicle: saline + alcohol).
